About 17,000 (5.5%) of roughly 310,000 compounds were called active. Inconclusive results, whose numbers are uncertain, are shown with a selection of clear calls. Calls follow the shape of the dose curve; as a rule, active = well fitted inhibition curve with a large enough effect; inconclusive = small, poorly fitted or top-dose-only effect, or effect the other way; inactive = no such curve, though single readings can be large or run the other way. Potencies beside an inconclusive call are fits to weak or partial responses and may not hold up.
Target: Nuclear receptor ROR-gamma (Mus musculus) (UniProt P51450)
Assay: qHTS for inhibitors of ROR gamma transcriptional activity; also: nearly all actives have a fitted effect of over 60% in size
Settings: Drosophila S2 Gal4-RORgamma UAS-luciferase reporter, 20 h; activity change, negative = inhibition: at 53.6 µM (top of the series)
Method in brief: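 In this cell-based reporter format, copper sulfate (700 uM final) drives Gal4–ROR gamma fusion expression from a metallothionein promoter in Drosophila Schneider cells; compounds preincubated 1 hr, reporter read after 20 hr at ambient temperature.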
% is scaled to controls: 0 for no effect and ±100 for the full control effect; potency is read from the fitted curve at half-maximal effect.

Chains of the proteins cited; added tags and fusions are not shown. Lines headed by an entry give the natural chain unless they say otherwise; changes in a name come on top.
UniProt P51450: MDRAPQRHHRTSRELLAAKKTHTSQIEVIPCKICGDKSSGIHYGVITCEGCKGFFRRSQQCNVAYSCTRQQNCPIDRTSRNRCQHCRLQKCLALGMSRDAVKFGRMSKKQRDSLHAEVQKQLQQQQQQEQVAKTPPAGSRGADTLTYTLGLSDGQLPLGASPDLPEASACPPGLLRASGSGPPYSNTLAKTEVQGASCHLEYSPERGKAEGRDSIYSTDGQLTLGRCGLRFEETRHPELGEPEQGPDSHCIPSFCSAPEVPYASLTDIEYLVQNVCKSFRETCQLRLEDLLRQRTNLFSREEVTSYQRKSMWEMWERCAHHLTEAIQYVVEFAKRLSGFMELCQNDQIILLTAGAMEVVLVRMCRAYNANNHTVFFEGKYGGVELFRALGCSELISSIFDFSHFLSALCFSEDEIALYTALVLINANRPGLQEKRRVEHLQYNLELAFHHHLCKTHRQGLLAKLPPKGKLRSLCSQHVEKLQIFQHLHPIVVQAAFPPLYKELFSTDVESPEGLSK

Question: With `COc1cc(Cl)ccc1OCc1cc(C(=O)N(C)CCc2c(C)n[nH]c2C)no1` as the compound, how does the “activity change, negative = inhibition” value read?
Answer: inactive: 42%

Question: How did the Potency turn out when `CCNC(=S)NNC(=O)CSc1nc2ccccc2n1C` was run?
Answer: active: 0.224 µM

Question: How did the Potency turn out when `O=C1ON=C(c2ccccc2)/C1=C/c1ccc(O)c(O)c1` was run?
Answer: inconclusive: 35.5 µM [inhibitor, single point]

Question: With `CC1CC(C)(C)NC(=S)N1CC(=O)NCc1ccc(Cl)cc1` (stereo unspecified) as the compound, how does the Potency read?
Answer: active: 11.2 µM

Question: Which “activity change, negative = inhibition” value does the source give for `Cc1cc(O)c(C(=O)/C=C/c2ccccc2O)c(=O)o1` here?
Answer: inactive: -8.98%

Question: With `O=C(CNC(=O)c1ccco1)N/N=C/c1ccc(O)cc1O` as the compound, how does the Potency read?
Answer: inconclusive: 11.2 µM [inhibitor, partial curve, poor fit]

Question: How did the Potency turn out when `COc1cccc(/C=C2\Oc3cc(OCC(=O)N4CCCCC4)ccc3C2=O)c1OC` was run?
Answer: inconclusive: 35.5 µM [activator, single point]

Question: With `CCC(C)Oc1ccc(C(=O)Nc2ccc(CN3CCOCC3)cc2)cc1` (stereo unspecified) as the compound, how does the Potency read?
Answer: inconclusive: 8.91 µM [activator, partial curve]

Question: With `N#Cc1c(-c2ccc(C(F)(F)F)cc2)cc(-c2ccccc2)[nH]c1=S` as the compound, how does the “activity change, negative = inhibition” value read?
Answer: inactive: -26.2%

Question: For `CCN=C1NN=C(c2c[nH]c3ccccc23)CS1`, which Potency is on record?
Answer: inconclusive: 22.4 µM [inhibitor, single point]

Question: For `CCn1c(SCC(=O)Nc2nc(-c3ccc(C)cc3)cs2)nnc1-c1ccccc1`, which “activity change, negative = inhibition” value is on record?
Answer: inactive: 30.8%

Question: With `CC(OC(=O)c1cc2sccc2n1C)C(=O)NCC1CCCO1` (stereo unspecified) as the compound, how does the Potency read?
Answer: inconclusive: 5.62 µM [inhibitor, single point]

Question: For `CCc1ccc(NC(=O)C/C(C)=N/NC(=O)COc2ccc(C)cc2Br)cc1`, which Potency is on record?
Answer: inconclusive: 35.5 µM [inhibitor, single point]

Question: With `CCOC(=O)c1sc(NC(=O)c2ccc(C)s2)cc1C` as the compound, how does the Potency read?
Answer: active: 1.26 µM

Question: How did the Potency turn out when `CSc1nnc(-c2cc3c(s2)-c2ccccc2CC3)o1` was run?
Answer: active: 1.26 µM

Question: `COc1cccc(Cn2cnc3c(NS(=O)(=O)c4cccc(Cl)c4Cl)c(C)c(C)cc32)c1` was tested. Which Potency did it give?
Answer: inconclusive: 14.1 µM [inhibitor, partial curve, poor fit]

Question: For `Cc1cccc(-n2ncc3c(N)ncnc32)c1`, which Potency is on record?
Answer: inconclusive: 5.62 µM [activator, partial curve]

Question: For `COc1ccc(C(=O)NCCSCc2ccccc2Cl)cc1OC`, which Potency is on record?
Answer: inconclusive: 17.8 µM [activator, partial curve]

Question: For `COc1cc(/C=N/NC(=O)Nc2ccccc2)ccc1OCCOc1ccccc1C`, which Potency is on record?
Answer: inconclusive: 10 µM [inhibitor, partial curve, poor fit]

Question: How did the Potency turn out when `COc1ccc(OC)c(N(CC(=O)N2CCCC2)S(=O)(=O)c2ccc(OC)c(OC)c2)c1` was run?
Answer: inconclusive: 35.5 µM [activator, single point]

Question: Which Potency does the source give for `COCCn1c(SCc2cccc([N+](=O)[O-])c2)nc2ccccc2c1=O` here?
Answer: inconclusive: 10 µM [activator, partial curve]

Question: `O=C(NCc1cccnc1)c1ccc(NC(=O)c2ccc(Br)cc2)cc1` was tested. Which “activity change, negative = inhibition” value did it give?
Answer: inactive: 28.7%

Question: With `COc1ccc([N+](=O)[O-])cc1C1NN=C(c2cccc3ccccc23)S1` (stereo unspecified) as the compound, how does the Potency read?
Answer: inconclusive: 2.24 µM [inhibitor, partial curve]

Question: For `CCCC(CCC)=NNc1ccc(S(=O)(=O)Nc2ccccc2OC)cc1[N+](=O)[O-]`, which Potency is on record?
Answer: inconclusive: 12.6 µM [activator, single point]

Question: Which Potency does the source give for `O=C(Nc1ccc(-c2ccccc2)cc1)c1ccco1` here?
Answer: inconclusive: 35.5 µM [inhibitor, single point]

Question: `Cc1cc(C)c(C)c(S(=O)(=O)N2CCN(CC(=O)NC(=O)NCc3ccccc3)CC2)c1C` was tested. Which Potency did it give?
Answer: inconclusive: 10 µM [activator, partial curve]

Question: With `Cc1ccc(S(=O)(=O)c2ccc(Cl)cc2)cc1S(N)(=O)=O` as the compound, how does the “activity change, negative = inhibition” value read?
Answer: inactive: 33.3%

Question: Which Potency does the source give for `O=C(Nc1ccc(Br)cc1)c1cccc(S(=O)(=O)Nc2ccc(Br)cc2)c1` here?
Answer: inconclusive: 8.91 µM [inhibitor, single point]

Question: Which “activity change, negative = inhibition” value does the source give for `Cc1cc(C)nc(N2CCC(C(=O)NNC(=O)c3ccc(Cl)cc3)CC2)n1` here?
Answer: inactive: 12.9%

Question: With `CC(C)c1ccc(C(C(=O)NC2CCCCC2)N(C(=O)c2csnn2)C2CC2)cc1` (stereo unspecified) as the compound, how does the “activity change, negative = inhibition” value read?
Answer: inactive: 24.5%

Question: Which “activity change, negative = inhibition” value does the source give for `COC(=O)c1oc2ccc(Cl)cc2c1N` here?
Answer: inactive: -8.22%

Question: For `Clc1ccc(-c2nc3nc4ccccc4nc3n2Cc2ccco2)cc1`, which “activity change, negative = inhibition” value is on record?
Answer: inactive: -2.59%

Question: `CC1CCCCN1CCNC(=O)c1ccc2c(=O)n(Cc3ccc(Cl)cc3)c(=S)[nH]c2c1` (stereo unspecified) was tested. Which Potency did it give?
Answer: active: 11.2 µM

Question: How did the Potency turn out when `COCCN(Cc1nc(-c2ccc(-c3ccccc3)cc2)oc1C)C(C)C` was run?
Answer: active: 11.2 µM

Question: Which Potency does the source give for `COCC(=O)Nc1nc(-c2ccc(C)cc2)c(C)s1` here?
Answer: inconclusive: 5.62 µM [activator, single point]

Question: `COc1cccc(C(=O)Nc2cc3c(cc2C(C)=O)OCCO3)c1` was tested. Which Potency did it give?
Answer: inconclusive: 12.6 µM [activator, single point]

Question: With `CC(C)=CCC/C(C)=C/CC/C(C)=C/CO` as the compound, how does the Potency read?
Answer: inactive

Question: With `CCOC(=O)c1cnc(SSc2ncc(C(=O)OCC)c(N)n2)nc1N` as the compound, how does the Potency read?
Answer: active: 10 µM

Question: For `CCOC(=O)N1CCN(C(=O)CSCc2ccc(Cl)cc2)CC1`, which Potency is on record?
Answer: inconclusive: 5.01 µM [activator, partial curve]

Question: `COc1ccc(/C=N/NC(=O)c2ccn[nH]2)cc1Cn1nc(C)c([N+](=O)[O-])c1C` was tested. Which Potency did it give?
Answer: inconclusive: 25.1 µM [activator, single point]

Question: For `O=[N+]([O-])c1ccccc1N(CC1CO1)S(=O)(=O)c1ccccc1` (stereo unspecified), which Potency is on record?
Answer: inconclusive: 14.1 µM [activator, single point]

Question: With `C/C(=N/NC(=O)Cc1cccc2ccccc12)c1cccs1` as the compound, how does the “activity change, negative = inhibition” value read?
Answer: inactive: 16.9%

Question: How did the Potency turn out when `O=c1[nH]c(CN(CCO)CCO)nc2c1C1(CCCCC1)Cc1ccccc1-2` was run?
Answer: inconclusive: 28.2 µM [inhibitor, single point]

Question: `COc1cccc(-c2nnc(NC(=O)C3CCCCC3)o2)c1` was tested. Which Potency did it give?
Answer: active: 3.55 µM

Question: For `O=C(OCCNc1nc(-c2ccccc2)nc2ccccc12)c1cccnc1`, which Potency is on record?
Answer: inconclusive: 35.5 µM [activator, single point]

Question: With `O=C(CN1CCN(c2ccccn2)CC1)Nc1ccc2ccccc2c1` as the compound, how does the “activity change, negative = inhibition” value read?
Answer: inactive: 9.38%

Question: For `O=C(N/N=C(\c1ccccc1)c1cccnc1)c1cc(O)ccc1O`, which Potency is on record?
Answer: inconclusive: 35.5 µM [inhibitor, single point]

Question: Which Potency does the source give for `CC1=C(C#N)C(C)C2=C(CC(C)(C)CC2=O)N1` (stereo unspecified) here?
Answer: inconclusive: 2.24 µM [inhibitor, partial curve]

Question: How did the Potency turn out when `COc1ccc2cc3c(N)nn(C(=O)c4cccc(F)c4)c3nc2c1` was run?
Answer: inconclusive: 2.51 µM [inhibitor, partial curve, poor fit]

Question: `COC(=O)COc1cccc2c(=O)n(CC(=O)N3CCCc4ccccc43)ccc12` was tested. Which “activity change, negative = inhibition” value did it give?
Answer: inactive: 1.3%

Question: For `CC1=C(C(=O)OCc2ccccc2)C(c2ccc3ccccc3c2)NC(=O)N1CCCCCC(=O)O` (stereo unspecified), which Potency is on record?
Answer: active: 7.94 µM

Question: `COc1cc(C(=O)OCC(=O)Nc2ccc(SC(F)F)cc2)cc(OC)c1OC` was tested. Which Potency did it give?
Answer: inconclusive: 35.5 µM [inhibitor, single point]

Question: For `O=C(O)c1ccc(Cl)c(S(=O)(=O)NCc2cccnc2)c1`, which Potency is on record?
Answer: inconclusive: 35.5 µM [inhibitor, single point]

Question: For `CCOc1ccc(NC(=O)CSc2nnc(-c3ccco3)n2N)cc1`, which “activity change, negative = inhibition” value is on record?
Answer: inactive: -15.7%

Question: With `COc1ccc(/C=C2\COc3ccccc3C2=O)c(OC)c1` as the compound, how does the “activity change, negative = inhibition” value read?
Answer: inactive: 18.6%

Question: Which Potency does the source give for `CCN(CC)S(=O)(=O)c1ccc(Oc2ccccc2)cc1` here?
Answer: inconclusive: 31.6 µM [activator, single point]

Question: How did the “activity change, negative = inhibition” value turn out when `NC=O` was run?
Answer: inactive: -10.1%

Question: With `O=C(O)c1cccc(C(=O)O)n1` as the compound, how does the “activity change, negative = inhibition” value read?
Answer: inactive: 1.22%

Question: `COc1ccc(C(=O)Nc2nc(-c3cccs3)cs2)cc1` was tested. Which “activity change, negative = inhibition” value did it give?
Answer: inactive: 21.8%

Question: Which “activity change, negative = inhibition” value does the source give for `CCc1ccc2c(c1)C(c1ccc([N+](=O)[O-])cc1)=NNC(c1ccc(F)cc1)=N2` here?
Answer: inactive: -4.56%

Question: Which “activity change, negative = inhibition” value does the source give for `Clc1ccc(/C=N/N2CCN(Cc3ccccc3)CC2)cc1` here?
Answer: inactive: 31.3%

Question: For `COC(=O)CCC(=O)NC(=S)Nc1c(C)cccc1C`, which Potency is on record?
Answer: inconclusive: 17.8 µM [inhibitor, single point]

Question: For `CC(=O)NC(CC(=O)OCC(=O)Nc1ccc2c(c1)OCO2)c1ccccc1` (stereo unspecified), which “activity change, negative = inhibition” value is on record?
Answer: inactive: -24.8%

Question: How did the Potency turn out when `Cn1nnc(NC(=S)NC(=O)c2cc(Cl)ccc2Cl)n1` was run?
Answer: active: 0.794 µM

Question: `CCCCc1ccc(NC(=S)NCC2CCCO2)cc1` (stereo unspecified) was tested. Which Potency did it give?
Answer: active: 2.82 µM

Question: `CCOC(=O)c1cccc(NC(=O)c2cccs2)c1` was tested. Which Potency did it give?
Answer: inconclusive: 12.6 µM [activator, partial curve]

Question: With `CCOC(=O)N1CCC(NC(=O)c2ccc3c(c2)N=C(CC)c2cc(C)ccc2S3)CC1` as the compound, how does the Potency read?
Answer: inconclusive: 11.2 µM [activator, partial curve]

Question: For `O=C(O)CCN1C(=O)/C(=C\c2cccc(OCC(=O)Nc3ccc(Cl)cc3)c2)SC1=S`, which Potency is on record?
Answer: inconclusive: 10 µM [activator, partial curve]

Question: With `COCCn1c(N2CCN(c3ccc(OC)cc3)CC2)nc2c1c(=O)[nH]c(=O)n2C` as the compound, how does the Potency read?
Answer: inconclusive: 7.08 µM [inhibitor, partial curve]

Question: With `CC(C)C[C@@H](CSc1ccc(Br)cc1)N1CCN(CCc2ccccc2)CCC1=O` as the compound, how does the Potency read?
Answer: inconclusive: 25.1 µM [activator, single point]

Question: With `COc1ccc(NC(=O)CSc2ncc(-c3ccc(F)cc3)n2Cc2ccco2)cc1` as the compound, how does the Potency read?
Answer: inconclusive: 35.5 µM [inhibitor, single point]

Question: Which “activity change, negative = inhibition” value does the source give for `O=C(CNS(=O)(=O)c1ccc(F)cc1)N1CCOCC1` here?
Answer: inactive: -8.17%

Question: How did the Potency turn out when `CCOC(CNC(=O)c1cc2c(=O)n(CC)c3ccccc3c2s1)OCC` was run?
Answer: inconclusive: 35.5 µM [activator, single point]

Question: `Cc1ccc(Nc2nc(-c3ccc(C)cc3)c(CC(=O)O)s2)cc1` was tested. Which Potency did it give?
Answer: inconclusive: 2 µM [inhibitor, partial curve]

Question: How did the Potency turn out when `CC(=C/c1ccccc1)/C=N/NC(=O)c1cc(C)oc1C` was run?
Answer: active: 7.08 µM

Question: How did the Potency turn out when `Cc1cccc(N(O)C(=O)Nc2cccc(Cl)c2)c1` was run?
Answer: inconclusive: 17.8 µM [activator, single point]

From PubChem BioAssay AID2551 (National Center for Advancing Translational Sciences (NCATS), 2010)
